# Read-outs that look alike come from different tables or passages of the source.
# Tests used:
# Assay type in all cases: biochemical
# pig liver esterase (PLE) = test system: pig liver esterase (PLE)
# [1] = test system: lipase from Candida rugosa
# [2] = test system: lipase from Candida rugosa; details: open tube, 10 mg complex, 20 mg lipase
# [3] = time 0 min, 12 mg complex, 15 mg enzyme
# [4] = time 110 min, 12 mg complex, 15 mg enzyme
SMILES,"ee (%) of remaining starting material ([1]; time 0 min, 8 mg enzyme)","ee (%) of remaining starting material ([1]; time 30 min, 8 mg enzyme)","ee (%) of remaining starting material ([1]; time 60 min, 8 mg enzyme)","ee (%) of remaining starting material ([1]; time 110 min, 8 mg enzyme)","ee (%) of remaining starting material ([1]; time 240 min, 8 mg enzyme)",ee (%) ([2]; time 0 min),ee (%) ([2]; time 15 min),ee (%) ([2]; time 30 min),ee (%) ([2]; time 60 min),ee (%) ([2]; time 110 min),"ee (%) of remaining starting material [1, 3]","ee (%) of remaining starting material [1, 4]",other results
"CC(=O)OC1=CC(C)(C)CC(OC(C)=O)=C1.[C-]#[O+].[C-]#[O+].[C-]#[O+].[Fe] [rac-13, reference compound]",,,,,,,,,,,,,"ee (%) of remaining starting material (pig liver esterase (PLE); time 5 min, 13 mg complex, 0.8 mg enzyme): —/10%; ee (%) of remaining starting material (pig liver esterase (PLE); time 15 min, 13 mg complex, 0.8 mg enzyme): 13%; ee (%) of remaining starting material (pig liver esterase (PLE); time 30 min, 13 mg complex, 0.8 mg enzyme): 18%; ee (%) of remaining starting material (pig liver esterase (PLE); time 45 min, 13 mg complex, 0.8 mg enzyme): 27%; ee (%) of remaining starting material (pig liver esterase (PLE); time 150 min, 13 mg complex, 0.8 mg enzyme): 37%; ee (%) of remaining starting material (pig liver esterase (PLE); time 210 min, 13 mg complex, 0.8 mg enzyme): 100%"
"CC(=O)OC1=CCCC=C1.[C-]#[O+].[C-]#[O+].[C-]#[O+].[Fe] [rac-86, (RS)-[η^4-Cyclohexa-1,5-dien-1-yl-tricarbonyliron(0)]acetate]",0/0%,75%,93%,100%,100%,0/0%,62%,67%,70%,70%,,,"ee (%) of remaining starting material ([1]; time 15 min, 8 mg enzyme): 51%"
"CC(C)(C)C(=O)OC1=CCCC=C1.[C-]#[O+].[C-]#[O+].[C-]#[O+].[Fe] [rac-87, (RS)-[η^4-Cyclohexa-1,5-dien-1-yl-tricarbonyliron(0)] pivalate]",0/0%,2%,5%,6%,11%,,,,,,0/0%,14%,"ee (%) of remaining starting material ([1]; time 240 min, 12 mg complex, 15 mg enzyme): 20%; ee (%) of remaining starting material ([1]; time 24 h, 8 mg enzyme): 38%; ee (%) of remaining starting material ([1]; time 24 h, 12 mg complex, 15 mg enzyme): 58%"
"CC(=O)OC1=CC=CCC1.[C-]#[O+].[C-]#[O+].[C-]#[O+].[Fe] [rac-96, (RS)-[θ^4-Cyclohexa-1,3-dien-1-yl-tricarbonyliron(0)]acetate]",,,,,,0/0%,43%,71%,96%,100%,0/0%,70%,"ee (%) of remaining starting material ([1]; time 15 min, 12 mg complex, 15 mg enzyme): 20%; ee (%) of remaining starting material ([1]; time 30 min, 12 mg complex, 15 mg enzyme): 30%; ee (%) of remaining starting material ([1]; time 60 min, 12 mg complex, 15 mg enzyme): 50%; ee (%) of remaining starting material (pig liver esterase (PLE); time 0 min, 10 mg complex, 1 mg enzyme): 5%; ee (%) of remaining starting material (pig liver esterase (PLE); time 120 min, 10 mg complex, 1 mg enzyme): 11%; ee (%) of remaining starting material (pig liver esterase (PLE); time 180 min, 10 mg complex, 1 mg enzyme): 17%; ee (%) of remaining starting material (pig liver esterase (PLE); time 300 min, 10 mg complex, 1 mg enzyme): 35%; ee (%) of remaining starting material (pig liver esterase (PLE); time 420 min, 10 mg complex, 1 mg enzyme): 69%; ee (%) of remaining starting material (pig liver esterase (PLE); time 540 min, 10 mg complex, 1 mg enzyme): 73%; ee (%) of remaining starting material (pig liver esterase (PLE); time 660 min, 10 mg complex, 1 mg enzyme): 74%"

# Source: patent US8927750B2, “Acyloxy- and phosphoryloxy-butadiene-Fe(CO)3 complexes as enzyme-triggered co-releasing molecules” (priority 2011, dated 2015)
